# Measurements reported in the supplement of paper PMC8728848.
# The list shows a part of the results.
# Assays:
# Assay in all cases: glycan array binding signal (z-score within array); higher = stronger binding
# Conditions in all cases: glycan notation: IUPAC condensed, linker removed
# [1] = target: Neu5Ac(a2-6)GlcNAc(b1-4)GlcNAc(b1-4)GlcNAc
# How it was run: (§1)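 Glycan array binding is given as a within-array Z-score, which can be read as non-binding when negative. The arrays, 3228 of them, came from the Consortium for Functional Glycomics database and were retained only where the protein sequence was available. Z-scores were averaged across arrays of the same protein sequence at different concentrations or buffers and across linkers.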
# Neu5Ac(a2-8)Neu5Ac = target: Neu5Ac(a2-8)Neu5Ac
# How it was run: as §1
# [2] = target: Neu5Ac(a2-8)Neu5Ac(a2-3)Gal(b1-3)GalNAc(b1-4)[Neu5Ac(a2-3)]Gal(b1-4)Glc
# How it was run: as §1
# [3] = target: Neu5Ac(a2-8)Neu5Ac(a2-3)Gal(b1-3)GalNAc(b1-4)[Neu5Ac(a2-8)Neu5Ac(a2-3)]Gal(b1-4)Glc
# How it was run: as §1
# [4] = target: Neu5Ac(a2-8)Neu5Ac(a2-3)Gal(b1-4)Glc
# How it was run: as §1
# [5] = target: Neu5Ac(a2-8)Neu5Ac(a2-3)Gal(b1-4)GlcNAc
# How it was run: as §1
# [6] = target: Neu5Ac(a2-8)Neu5Ac(a2-3)[Gal(b1-3)GalNAc(b1-4)]Gal(b1-4)Glc
# How it was run: as §1
# [7] = target: Neu5Ac(a2-8)Neu5Ac(a2-3)[GalNAc(b1-4)]Gal(b1-4)Glc
# How it was run: as §1
# [8] = target: Neu5Ac(a2-8)Neu5Ac(a2-8)Neu5Ac
# How it was run: as §1
# [9] = target: Neu5Ac(a2-8)Neu5Ac(a2-8)Neu5Ac(a2-3)Gal(b1-4)Glc
# How it was run: as §1
# [10] = target: Neu5Ac(a2-8)Neu5Ac(a2-8)Neu5Ac(a2-3)[Gal(b1-3)GalNAc(b1-4)]Gal(b1-4)Glc
# How it was run: as §1
# [11] = target: Neu5Ac(a2-8)Neu5Ac(a2-8)Neu5Ac(a2-3)[GalNAc(b1-4)]Gal(b1-4)Glc
# How it was run: as §1
# [12] = target: Neu5Ac(a2-8)Neu5Ac(a2-8)Neu5Ac(a2-8)Neu5Ac(a2-3)[GalNAc(b1-4)]Gal(b1-4)Glc
# How it was run: as §1
# [13] = target: Neu5Ac(a2-8)Neu5Gc(a2-3)Gal(b1-4)GlcNAc
# How it was run: as §1
# [14] = target: Neu5Ac(b2-6)Gal(b1-4)GlcNAc
# How it was run: as §1
# Neu5Ac(b2-6)GalNAc = target: Neu5Ac(b2-6)GalNAc
# How it was run: as §1
# [15] = target: Neu5Ac9Ac(a2-3)Gal(b1-3)GlcNAc
# How it was run: as §1
# [16] = target: Neu5Ac9Ac(a2-3)Gal(b1-4)GlcNAc
# How it was run: as §1
# [17] = target: Neu5Ac9Ac(a2-6)Gal(b1-4)GlcNAc
# How it was run: as §1
# [18] = target: Neu5Gc(a2-3)Gal(b1-3)GlcNAc
# How it was run: as §1
# [19] = target: Neu5Gc(a2-3)Gal(b1-3)[Fuc(a1-4)]GlcNAc
# How it was run: as §1
# Neu5Gc(a2-3)Gal(b1-4)Glc = target: Neu5Gc(a2-3)Gal(b1-4)Glc
# How it was run: as §1
# [20] = target: Neu5Gc(a2-3)Gal(b1-4)GlcNAc
# How it was run: as §1
# [21] = target: Neu5Gc(a2-3)Gal(b1-4)GlcNAc(b1-3)Gal(b1-4)GlcNAc(b1-2)Man(a1-3)[Neu5Gc(a2-3)Gal(b1-4)GlcNAc(b1-3)Gal(b1-4)GlcNAc(b1-2)Man(a1-6)]Man(b1-4)GlcNAc(b1-4)GlcNAc
# How it was run: as §1
# [22] = target: Neu5Gc(a2-3)Gal(b1-4)[Fuc(a1-3)]GlcNAc
# How it was run: as §1
# [23] = target: Neu5Gc(a2-6)Gal(b1-4)GlcNAc
# How it was run: as §1
# Neu5Gc(a2-6)GalNAc = target: Neu5Gc(a2-6)GalNAc
# How it was run: as §1
# [24] = target: Neu5Gc(a2-8)Neu5Ac(a2-3)Gal(b1-4)GlcNAc
# How it was run: as §1
# [25] = target: Neu5Gc(a2-8)Neu5Gc(a2-3)Gal(b1-4)GlcNAc
# How it was run: as §1
# [26] = target: Neu5Gc(a2-8)Neu5Gc(a2-3)Gal(b1-4)GlcNAc(b1-3)Gal(b1-4)GlcNAc
# How it was run: as §1
# [27] = target: Neu5Gc(a2-8)Neu5Gc(a2-6)Gal(b1-4)GlcNAc
# How it was run: as §1
# [28] = target: Neu5Gc(b2-6)Gal(b1-4)GlcNAc
# How it was run: as §1
binder,measurement,setting,value
GS13814A-bth-462-26-462 (Bacteroides thetaiotaomicron) (protein) DDRDNLMVNDQIGLLHSTYTETEIFRGMDTPYQLFVIKSGKGKQETEVSISVDETVLQSYNTDNGTSIQLLPSDCYTILQPALRLNDSDYRKAFDIKWNADRLSDLLSTGKEYGLPIQMSVVQNFISADDERLKTIIVPTIKEPYLQMDVPGMSPVTDFMPTFGDLNERELFVKIRTNYSNDEDISFQIEVDPQLVIDYNTAHGTAYKMLPESSFTVDNKGVILTGMKETFIKIKYHKKGLIPEEGTYLFGDYVLPLRITSVSKYGISPDAASKLYTVKFQPDPIDKKGWSVIDFNNCCTQDGGWYLNMGWGVESLIDNNPGTQWLCRWDVKEPLPYYFVFDMGKEYTLFRFGFANPVAPAAHVWAGTSKAGYVEASIDNENWVKLKDWTSPKIGEPNVNMDVPATQARYIRFVITDTYPTYDGLRVSLGEVYAWGM,glycan array binding signal (z-score),[1],0.478
same,glycan array binding signal (z-score),Neu5Ac(a2-8)Neu5Ac,0.849
same,glycan array binding signal (z-score),[2],-0.32
same,glycan array binding signal (z-score),[3],0.933
same,glycan array binding signal (z-score),[4],-0.694
same,glycan array binding signal (z-score),[5],-1.27
same,glycan array binding signal (z-score),[6],0.136
same,glycan array binding signal (z-score),[7],0.343
same,glycan array binding signal (z-score),[8],-0.33
same,glycan array binding signal (z-score),[9],-1.35
same,glycan array binding signal (z-score),[10],-0.216
same,glycan array binding signal (z-score),[11],0.634
same,glycan array binding signal (z-score),[12],-0.032
same,glycan array binding signal (z-score),[13],-1.02
same,glycan array binding signal (z-score),[14],-0.696
same,glycan array binding signal (z-score),Neu5Ac(b2-6)GalNAc,-0.699
same,glycan array binding signal (z-score),[15],0.744
same,glycan array binding signal (z-score),[16],-0.633
same,glycan array binding signal (z-score),[17],-0.306
same,glycan array binding signal (z-score),[18],-0.264
same,glycan array binding signal (z-score),[19],-0.767
same,glycan array binding signal (z-score),Neu5Gc(a2-3)Gal(b1-4)Glc,0.433
same,glycan array binding signal (z-score),[20],1.47
same,glycan array binding signal (z-score),[21],-0.487
same,glycan array binding signal (z-score),[22],-0.204
same,glycan array binding signal (z-score),[23],1.43
same,glycan array binding signal (z-score),Neu5Gc(a2-6)GalNAc,0.092
same,glycan array binding signal (z-score),[24],-0.879
same,glycan array binding signal (z-score),[25],-0.502
same,glycan array binding signal (z-score),[26],1.31
same,glycan array binding signal (z-score),[27],-0.069
same,glycan array binding signal (z-score),[28],-0.067

# Part of the list above, with tabs.
binder	measurement	setting	value
GS13814A-bth-462-26-462 (Bacteroides thetaiotaomicron) (protein) DDRDNLMVNDQIGLLHSTYTETEIFRGMDTPYQLFVIKSGKGKQETEVSISVDETVLQSYNTDNGTSIQLLPSDCYTILQPALRLNDSDYRKAFDIKWNADRLSDLLSTGKEYGLPIQMSVVQNFISADDERLKTIIVPTIKEPYLQMDVPGMSPVTDFMPTFGDLNERELFVKIRTNYSNDEDISFQIEVDPQLVIDYNTAHGTAYKMLPESSFTVDNKGVILTGMKETFIKIKYHKKGLIPEEGTYLFGDYVLPLRITSVSKYGISPDAASKLYTVKFQPDPIDKKGWSVIDFNNCCTQDGGWYLNMGWGVESLIDNNPGTQWLCRWDVKEPLPYYFVFDMGKEYTLFRFGFANPVAPAAHVWAGTSKAGYVEASIDNENWVKLKDWTSPKIGEPNVNMDVPATQARYIRFVITDTYPTYDGLRVSLGEVYAWGM	glycan array binding signal (z-score)	[20]	1.47
same	glycan array binding signal (z-score)	[21]	-0.487
